This passage reports binding results from article PMC6180136.

In the assay the target is FLAG-MSK1 (mitogen- and stress-activated kinase 1) (UniProt O75582). The experiment in a line: co-IP; HEK293T cells transfected with FLAG-MSK1 and HA-p53; lysates (20 mM Tris-Cl pH 7.5, 300 mM KCl, 0.2 mM EDTA, 0.1% NP-40, 20% glycerol) incubated with M2 agarose; immunoblot. (In general: Immunoblotting shows a protein as a band on a membrane.)

These are yes or no findings as the source states them, for the method shown. In cells and extracts the contact can be indirect. Some entries that bind do so weakly or less than the wild type.

For the substance HA-p53 (from UniProt P04637 1-393), the binding entry is “binds”.
